Some entries share one result that the patent states for a list of compounds.
Test system: human saliva derived microcosm biofilm
Test: Lactic acid release of biofilm grown in MCM human derived saliva biofilm system (LDH-NAD-PMS-MTT enzyme assay)
Assay type: cell-based, lactic acid producing bacteria (human derived saliva)
Conditions: 26-hours growth
Protocol: A composition was prepared by dissolving the amino acid to be tested in de-ionized water in the given amount.
Biofilms were grown in a MCM (mucine containing medium plus 1% sucrose) human derived saliva biofilm system.
A general procedure is summarized below: • 1. Four-hour incubation of bovine sample disks with saliva-mcm (mucine containing medium plus 1% sucrose) at 37° C. • 2. Fresh medium (MCM with different amino acids) for 2-hour incubation at 37° C. • 3. Fresh medium (MCM with different amino acids) for storage over night at 37° C. • 4. Second Day: Fresh medium (MCM with different amino acids) after 22 and 24 hours. • 5. Samples were taken after 26 hours biofilm growth for measurements of lactic acid release and biomass evaluation.
To determine the activity of the grown biofilm, the production of lactic acid in the supernatant (0.75 ml PBS-solution with 5% sucrose per each sample disc) is measured by using the Lactic acid dehydrogenase (LDH)—Nicotinamid-adenin-dinukleotid (NAD)—Phenazine Methosulphate (PMS)—Thiazolyl blue tetrazolium bromide (MTT)—enzyme assay. To guarantee that only freshly produced lactic acid is determined, the samples are washed (in three steps, each lasting 30 sec) in 1.5 ml PBS-solution. The production of lactic acid is evaluated by measuring the lactic acid amount at given points for 30 min. The determination points are: 0 min 15 min and 30 min. For each reading point a sample of 50 μl is taken out of each well. The lactic acid amount at each reading point is determined by using the enzyme assay described above. Lactic acid amount is calculated according to the lactic acid calibration curve.
In this experiment, the MCM human derived saliva biofilm system was used. The biofilms were grown for 26 hours in continuous presence of sucrose and different amino acids.

[1] = continuous presence of amino acid at 2.7%

Structure (SMILES)	reduction of lactic acid production [1] [%]	also measured
CC[C@H](C)[C@H](N)C(=O)O [Isoleucine]		reduction of lactic acid production (continuous presence of amino acid at 4.0%): > 50%
CC(C)C[C@H](N)C(=O)O [Leucine]	> 50	
CC(C)[C@H](N)C(=O)O [Valine]		reduction of lactic acid production (continuous presence of amino acid at 5.0%): > 50%
N[C@@H](CO)C(=O)O [Serine]	> 50	
N[C@@H](Cc1ccccc1)C(=O)O [Phenylalanine]	> 90	

— patent US20210121380A1, “Amino Acid Containing Oral Care Composition for Treating Caries By Reducing Lactic Acid Release in Oral Biofilms” (3M INNOVATIVE PROPERTIES COMPANY, priority 2018, published 2021)
